In article PMC7526537:
No constants are given. Whether binding was seen depends on the method and setting. Binding seen in cells or lysates may run through a third protein. Some binding calls cover weakened binding; strength is not graded here.

Protein sequences, listed by entry. Tags and fused reporters are not part of them. Lines headed by an entry give the natural chain unless they say otherwise; changes in a name come on top.
UniProt P41212: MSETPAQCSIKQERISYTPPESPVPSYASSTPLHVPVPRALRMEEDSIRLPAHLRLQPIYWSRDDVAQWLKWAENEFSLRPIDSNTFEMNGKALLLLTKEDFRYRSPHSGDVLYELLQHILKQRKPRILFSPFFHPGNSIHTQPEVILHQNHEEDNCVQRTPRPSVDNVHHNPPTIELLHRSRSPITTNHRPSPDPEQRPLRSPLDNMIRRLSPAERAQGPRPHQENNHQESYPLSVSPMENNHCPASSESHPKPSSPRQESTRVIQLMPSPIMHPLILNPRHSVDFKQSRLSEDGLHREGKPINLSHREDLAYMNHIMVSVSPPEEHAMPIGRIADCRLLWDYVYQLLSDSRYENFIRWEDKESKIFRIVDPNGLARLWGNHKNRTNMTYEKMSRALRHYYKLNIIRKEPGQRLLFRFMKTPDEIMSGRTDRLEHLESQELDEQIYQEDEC
UniProt O15379: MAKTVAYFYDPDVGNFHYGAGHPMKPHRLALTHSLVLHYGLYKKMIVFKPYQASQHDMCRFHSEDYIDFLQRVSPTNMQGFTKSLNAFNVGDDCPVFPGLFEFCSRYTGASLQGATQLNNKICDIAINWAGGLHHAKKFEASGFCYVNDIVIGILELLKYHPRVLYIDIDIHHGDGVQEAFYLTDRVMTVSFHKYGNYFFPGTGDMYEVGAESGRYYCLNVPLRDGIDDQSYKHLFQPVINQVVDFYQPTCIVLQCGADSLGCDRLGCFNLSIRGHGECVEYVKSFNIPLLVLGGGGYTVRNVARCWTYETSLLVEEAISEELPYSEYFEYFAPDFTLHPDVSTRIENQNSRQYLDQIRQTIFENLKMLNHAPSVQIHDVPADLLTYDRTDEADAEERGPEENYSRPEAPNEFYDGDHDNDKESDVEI

Target: ETV6 (ETS family transcription repressor and tumor suppressor variant 6), WT (human (endogenous in PBMCs)) (UniProt P41212)
Experiment: co-IP; lysate of healthy control PBMCs incubated with anti-ETV6 antibody and rec-Protein G-sepharose beads overnight at 4°C; beads washed 3 times with 1x PBS; eluate blotted for HDAC3, NCOR2 and α-tubulin

binding: binds
Substance: HDAC3 (from UniProt O15379 1-428) (enzyme)
